These are yes or no findings as the source states them, for the method shown. Binding seen in cells or lysates may run through a third protein. Binding can be weak; no strength is given. For part of these data: Sequences can lack the tags named with a protein.
Legend:
[1] = molecular target: T1, V5-tagged HSPB8_WT (heat shock protein family B (small) member 8, wild-type) (human) (UniProt Q9UJY1); test: co-IP; RIPA-soluble extracts of HEK293T-HSPB8-WT-V5 cells transfected with untagged pCi-HSPB8 constructs, 48 h; anti-V5 (D3H8Q) antibody on Protein A magnetic beads; western blot
T1 sequence: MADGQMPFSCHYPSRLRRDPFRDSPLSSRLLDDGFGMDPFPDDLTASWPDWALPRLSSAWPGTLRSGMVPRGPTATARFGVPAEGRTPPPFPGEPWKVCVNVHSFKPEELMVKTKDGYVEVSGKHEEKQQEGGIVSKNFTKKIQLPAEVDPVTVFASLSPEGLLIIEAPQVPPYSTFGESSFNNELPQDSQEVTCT

Amino acid sequences for entries named in this document (tags omitted).
UniProt O95817: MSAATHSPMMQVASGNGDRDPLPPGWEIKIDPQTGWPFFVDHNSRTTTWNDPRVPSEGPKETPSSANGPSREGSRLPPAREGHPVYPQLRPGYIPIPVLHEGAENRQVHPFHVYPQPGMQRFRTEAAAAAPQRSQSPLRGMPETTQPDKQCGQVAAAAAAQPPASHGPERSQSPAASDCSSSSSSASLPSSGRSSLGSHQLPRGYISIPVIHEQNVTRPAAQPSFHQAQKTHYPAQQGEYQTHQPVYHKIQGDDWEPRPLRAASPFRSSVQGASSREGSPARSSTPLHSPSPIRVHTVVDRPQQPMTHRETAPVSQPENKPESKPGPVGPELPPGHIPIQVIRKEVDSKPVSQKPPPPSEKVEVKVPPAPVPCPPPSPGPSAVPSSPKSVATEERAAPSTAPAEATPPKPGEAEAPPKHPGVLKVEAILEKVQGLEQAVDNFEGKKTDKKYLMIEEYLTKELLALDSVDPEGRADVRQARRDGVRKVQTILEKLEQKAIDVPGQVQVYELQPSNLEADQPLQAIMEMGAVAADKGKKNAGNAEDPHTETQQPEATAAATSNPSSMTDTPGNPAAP

[2] = molecular target: BAG3 (BAG cochaperone 3) (human (endogenous in HEK293T)) (UniProt O95817); test: co-IP; RIPA-soluble extracts of HEK293T-HSPB8-WT-V5 cells transfected with untagged pCi-HSPB8 constructs, 48 h; anti-BAG3 (Abcam ab47124) antibody on Protein A magnetic beads; western blot

Row | Substance | binding [1] | binding [2]
1 | untagged HSPB8_fs mutant p.P173Sfs*43 (from UniProt Q9UJY1) | binds | binds
2 | untagged HSPB8_fs mutant p.Q170Gfs*45 (from UniProt Q9UJY1) | binds | binds
3 | untagged HSPB8_fs mutant p.T194Sfs*23 (from UniProt Q9UJY1) | binds | binds
